# Reference: PubChem BioAssay AID624297 (National Center for Advancing Translational Sciences (NCATS), 2012)
# The campaign covered roughly 340,000 compounds. About 6,200 (1.8%) were called active. The inconclusive results got no clear call from the source; some entries with a clear call stand among them for comparison. Calls follow the shape of the dose curve; as a rule, active = well fitted activation curve with a large enough effect; inconclusive = small, poorly fitted or top-dose-only effect; inactive = no such curve, though single readings can be large or run the other way. Potencies beside an inconclusive call are fits to weak or partial responses and may not hold up.
# Test: A quantitative high throughput screen for small molecules that induce DNA re-replication in SW480 colon adenocarcinoma cells. Also: nearly all actives have a fitted effect of over 55% in size. As to re-replication activation: % of control where 0% means no effect.
# Conditions: Hoechst DNA content imaging, 48 h; re-replication activation: at 46.1 µM (top of the series) unless noted
# In short: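 Compounds, transferred as 23 nL by pin tool, were incubated with cells for 48 hr; DNA content per nucleus was then quantified by Hoechst staining and fluorescence plate imaging.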
# Potency is read from the fitted curve at half-maximal effect.
SMILES,re-replication activation,Potency
COc1ccc(C(C)=O)cc1CSc1nc2ccccc2c(=O)n1-c1ccccc1C,inactive: 3.84%,
COc1ccc(N(CC(=O)N2CCc3ccccc32)S(=O)(=O)c2c(C)nn(C)c2C)cc1,inactive: -4.3%,
COc1ccc(/C=C/C(=O)Nc2ccncc2)cc1OC,,"inconclusive: 20.6 µM [activator, single point]"
CCOC(=O)C1CCN(S(=O)(=O)c2ccc3[nH]c(=O)ccc3c2)CC1,inactive: -17%,
CCN1C(=O)/C(=C2\SC(=S)N(c3c(C)n(C)n(-c4ccccc4)c3=O)C2=O)c2ccccc21,inactive: -5.01%,
COc1cc(/C=C2/CCc3ccccc3C2=O)cc(OC)c1OC,,"inconclusive: 29.1 µM [activator, single point]"
COc1ccc(C2=NN(C(=O)c3ccncc3)C(c3ccccc3O)C2)cc1 (stereo not given),inactive: -3.57%,
COc1cccc(-c2noc(CCCC(=O)NC3CCCC3)n2)c1,,active: 20.6 µM
O=C(N/N=C/c1ccoc1)c1ccccc1O,,"inconclusive: 18.4 µM [activator, single point]"
CCN(CC)C(=O)C1CCN(S(=O)(=O)c2cccc3nonc23)CC1,,"inconclusive: 0.0517 µM [activator, full curve, poor fit]"
Cc1ccccc1NC(=O)C1Cc2ccccc2CN1C(=O)c1ccco1 (stereo not given),inactive: 1.23%,
CC1=NN(c2ccccc2)C(=O)C1C=Nc1ccccc1O (stereo not given),,"inconclusive: 18.4 µM [activator, single point]"
COc1ccc(Nc2oc(COc3ccc(Cl)cc3)nc2C#N)cc1,inactive: 1.61%,
O=C(NCc1cccs1)C1CCC(=O)N(Cc2cccc(C(F)(F)F)c2)C1 (stereo not given),,"inconclusive: 23.1 µM [activator, single point]"
Cn1c(O)c(N=Nc2nc(-c3ccccc3)cs2)c2ccccc21,inactive: -1.57%,
CCOCCCNC(=O)Cc1ccc(Br)cc1,inactive: -6.67%,
CCOc1ccccc1CNC(=O)C1Cc2cc(S(=O)(=O)N3CCCCC3)ccc2N1C(C)=O (stereo not given),,"inconclusive: 5.8 µM [activator, single point]"
CCc1ccc2c(c1)C(c1ccc(N3CCOCC3)cc1)=NNC(c1ccncc1)=N2,,"inconclusive: 25.9 µM [activator, partial curve, poor fit]"
Oc1ccccc1CN(Cc1ccco1)CC(O)COCc1ccc(Cl)cc1 (stereo not given),inactive: 17.5%,
O=C(Nc1ccncc1)c1c(Cl)cccc1Cl,,"inconclusive: 20.6 µM [activator, single point]"
COc1ccc(C(=O)NCC(=O)OCC(=O)c2ccc3c(c2)NC(=O)CO3)cc1,,"inconclusive: 32.6 µM [activator, partial curve, poor fit]"
Cc1cccnc1NC1CCCCC1,,"inconclusive: 1.16 µM [activator, single point]"
N#CC1=C(N)SC(N)=C(C#N)C1C1C=CCCC1 (stereo not given),inactive: -6.35%,
CC(C)c1ccc(NC(=O)C2CC3CCC2C3)cc1 (stereo not given),,"inconclusive: 29.1 µM [activator, single point]"

SMILES,re-replication activation,Potency
CCOC(=O)C(CC)Sc1nc2c(c(=O)[nH]c(=O)n2C)n1C/C=C(/C)Cl (stereo not given),,"inconclusive: 29.1 µM [activator, single point]"
O=C(CN1CCN(c2ccccc2F)CC1)NC(=O)NCc1ccccc1,,"inconclusive: 6.51 µM [activator, single point]"
O=C(CN1CCCC1)Nc1ccc(-c2nc3cc(NC(=O)CN4CCCC4)ccc3o2)cc1,,"inconclusive: 29.1 µM [activator, single point]"
CCN(CCO)C1CC(=O)N(c2ccccc2C)C1=O (stereo not given),,"inconclusive: 20.6 µM [activator, partial curve, poor fit]"
Cc1ccnc(NC(=O)C(Cc2ccccc2)NC(=O)c2ccccc2)c1 (stereo not given),inactive: -3.62%,
CSc1ccccc1NC(=O)CN(C)Cc1ccc(Br)cc1,inactive: 2.5%,
c1ccc(CN2CCC(Nc3nc(-c4cccnc4)nc4ccccc34)CC2)cc1,,"inconclusive: 29.1 µM [activator, single point]"
CN(C)c1ccc(CNCC2CCCO2)cc1 (stereo not given),,"inconclusive: 29.1 µM [activator, single point]"
Cc1ccc2ccc(S(=O)(=O)n3nc(C)cc3C)cc2c1,,"inconclusive: 29.1 µM [activator, single point]"
O=C(Cn1cnc([N+](=O)[O-])c1)Nc1ccccc1C(F)(F)F,inactive: 8.38%,
O=C1/C(=C/c2ccc(F)cc2)CCC1C1CCCC1 (stereo not given),inactive: 1.27%,
C#CC(=O)N(c1ccc(OC)cc1OC)C(C(=O)NC1CCCC1)c1cccs1 (stereo not given),,"inconclusive: 3.26 µM [activator, full curve, poor fit]"
Cc1ccc(Nc2ncnc3sccc23)c(C)c1,,"inconclusive: 29.1 µM [activator, single point]"
COc1c(F)c(F)c(C(=O)Nc2ccc(N3CCN(C(C)=O)CC3)c(Cl)c2)c(F)c1F,inactive: 15.3%,
CCOC(=O)N1CCN(C2CCCN(C(=O)c3cccc(Cl)c3)C2)CC1 (stereo not given),inactive: -10.8%,
CCOC(=O)N1CCC(NC(=O)C2=CCN(S(=O)(=O)c3ccc(OC)cc3)CC2)CC1,inactive: 18.7%,
CCCCN(C(=O)c1cccc(-n2cccc2)c1)c1c(N)n(CCCC)c(=O)[nH]c1=O,,"inconclusive: 7.31 µM [activator, single point]"
Cc1cc(NC(=O)CSCC(=O)Nc2ccccc2N2CCCCC2)no1,,"inconclusive: 32.6 µM [activator, partial curve, poor fit]"
Cc1ccccc1/C=C/C(=O)c1ccc([N+](=O)[O-])o1,,"inconclusive: 5.8 µM [activator, partial curve]"
O=C(NCc1cccc(C(F)(F)F)c1)c1cc(-c2ccccc2)nn1CC1CC(c2cccnc2)=NO1 (stereo not given),,"inconclusive: 23.1 µM [activator, partial curve, poor fit]"
O=C(OCC(=O)N1CCc2ccccc21)c1c2c(nc3ccccc13)CCCCC2,inactive: -2.68%,
CC(C)(C)OC(=O)N1CCOCCOCCN(C(=O)OC(C)(C)C)CCOCC1,,"inconclusive: 0.103 µM [activator, full curve, poor fit]"
COc1ccccc1N1CCN(C(=O)c2ccc3ncsc3c2)CC1,,active: 16.4 µM
COc1ccc(CCn2c(-c3ccco3)nc3nc4ccccc4nc32)cc1,,"inconclusive: 18.4 µM [activator, partial curve, poor fit]"

# Given with bars between the fields: entries from further up
SMILES | re-replication activation | Potency
COc1ccc(C(C)=O)cc1CSc1nc2ccccc2c(=O)n1-c1ccccc1C | inactive: 3.84% | 
COc1ccc(N(CC(=O)N2CCc3ccccc32)S(=O)(=O)c2c(C)nn(C)c2C)cc1 | inactive: -4.3% | 
COc1ccc(/C=C/C(=O)Nc2ccncc2)cc1OC |  | inconclusive: 20.6 µM [activator, single point]
CCOC(=O)C1CCN(S(=O)(=O)c2ccc3[nH]c(=O)ccc3c2)CC1 | inactive: -17% | 

# Following part.

SMILES,re-replication activation,Potency
CCOc1cc(-c2cc(-c3ccc(C)cc3)nc(N)c2C#N)ccc1O,,active: 16.4 µM
COc1cc(C2C(C#N)=C(N)N(c3ccc(F)cc3)C3=C2S(=O)(=O)CC3)ccc1O (stereo not given),,"inconclusive: 29.1 µM [activator, partial curve, poor fit]"
O=C(COC(=O)/C=C/c1cccc(Cl)c1)NC1CCCC1,,"inconclusive: 0.58 µM [activator, full curve, poor fit]"
Cc1c(C(=O)c2ccc(Cl)c(Cl)c2)cnc2cc3c(cc12)OCO3,,"inconclusive: 29.1 µM [activator, single point]"
CCN1CCN(Cc2ccc(NC(=O)c3ccc(C)c(NC(=O)c4c[nH]c5cc(C(F)(F)F)ccc5c4=O)c3)cc2C(F)(F)F)CC1,,active: 1.84 µM
Cc1ccc(NC(=O)CN2C(=O)S/C(=C/c3ccc(-c4cccc(C(=O)O)c4)o3)C2=O)cc1,,"inconclusive: 13 µM [activator, partial curve]"
Cc1ccc(SCC(=O)O/N=C(\N)c2ccncc2)cc1,,"inconclusive: 9.2 µM [activator, partial curve, poor fit]"
CC(C)Oc1ccc(S(=O)(=O)N2CCCCC2)cc1NC(=O)CN1C(=O)NC2(CCCC2)C1=O,,"inconclusive: 8.2 µM [activator, single point]"
COc1ccc(CC(=O)NNC(=O)CN(C)S(=O)(=O)c2ccc(Cl)cc2)cc1OC,,"inconclusive: 16.4 µM [activator, single point]"
COc1ccc(NS(=O)(=O)c2cc(NC(=O)c3ccco3)ccc2N2CCCCC2)cc1,,"inconclusive: 18.4 µM [activator, single point]"
COc1cccc(C2=NOC(C(=O)Nc3c(C)n(C)n(-c4ccccc4)c3=O)C2)c1 (stereo not given),,"inconclusive: 16.4 µM [activator, single point]"
NC[C@@H]1O[C@@H](O[C@H]2[C@H](O)[C@H](O[C@@H]3O[C@H](CO)[C@@H](O)[C@H](N)[C@@H]3O)[C@@H](N)C[C@H]2N)[C@H](N)C[C@@H]1O,inactive: -10.1% [at 20.6 µM],
CC(=O)Nc1ccccc1NS(=O)(=O)c1ccc(Cl)cc1,,"inconclusive: 20.6 µM [activator, single point]"
CC(=O)Nc1ccc(NC(=O)C(C)Sc2n[nH]c(-c3ccc(C)cc3)n2)cc1 (stereo not given),,"inconclusive: 29.1 µM [activator, single point]"
CCOc1ccc(NC(=O)CCCc2cc(-c3ccc(OCC)cc3)on2)cc1,inactive: -6.11%,
Cc1ccc2cc(C=O)c(N(C)C)nc2c1,,"inconclusive: 1.64 µM [activator, full curve, poor fit]"
COc1ccc(OC)c2c1sc(=NC(=O)c1cccc(N3C(=O)CCC3=O)c1)n2C,inactive: -6.63%,
CCS(=O)(=O)N1CCC(C(=O)NCCC2=CCCCC2)CC1,,"inconclusive: 29.1 µM [activator, single point]"
CCOC(=O)C1CCCN(C(=O)c2cc3c(C)nc4ccccc4c3o2)C1 (stereo not given),inactive: -1.08%,
Nc1cccc2c1C(=O)N(CCOc1ccccc1F)C2=O,,"inconclusive: 18.4 µM [activator, single point]"
CC(=O)c1ccc2c(c1)OCCOCCOc1ccccc1OCCOCCO2,,"inconclusive: 29.1 µM [activator, single point]"
Cc1ccc2nc(N(CCCN(C)C)C(=O)COc3ccc(Cl)cc3)sc2c1,inactive: -5.33%,
